# Source: the supplement of paper PMC10849652
# The chains behind the UniProt entries cited, without tags or fusion partners. Where a name states a change or a piece, a line headed by the entry shows the natural chain unless it says otherwise.
# UniProt Q9BW85: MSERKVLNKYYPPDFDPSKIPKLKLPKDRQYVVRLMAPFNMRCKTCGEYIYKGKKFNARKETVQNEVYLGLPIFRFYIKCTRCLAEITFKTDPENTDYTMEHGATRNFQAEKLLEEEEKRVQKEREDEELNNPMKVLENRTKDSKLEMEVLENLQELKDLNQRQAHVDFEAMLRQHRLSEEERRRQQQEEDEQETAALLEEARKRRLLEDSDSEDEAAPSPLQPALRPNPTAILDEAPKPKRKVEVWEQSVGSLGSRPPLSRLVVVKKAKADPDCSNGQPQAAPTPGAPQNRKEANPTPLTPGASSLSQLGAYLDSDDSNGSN
# UniProt O76080: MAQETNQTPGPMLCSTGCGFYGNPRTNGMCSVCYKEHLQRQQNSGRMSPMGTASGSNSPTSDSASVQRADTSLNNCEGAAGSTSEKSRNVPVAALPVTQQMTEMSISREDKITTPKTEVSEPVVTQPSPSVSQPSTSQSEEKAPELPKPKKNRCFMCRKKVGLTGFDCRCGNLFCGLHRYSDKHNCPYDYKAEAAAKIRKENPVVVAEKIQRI
# UniProt Q14202: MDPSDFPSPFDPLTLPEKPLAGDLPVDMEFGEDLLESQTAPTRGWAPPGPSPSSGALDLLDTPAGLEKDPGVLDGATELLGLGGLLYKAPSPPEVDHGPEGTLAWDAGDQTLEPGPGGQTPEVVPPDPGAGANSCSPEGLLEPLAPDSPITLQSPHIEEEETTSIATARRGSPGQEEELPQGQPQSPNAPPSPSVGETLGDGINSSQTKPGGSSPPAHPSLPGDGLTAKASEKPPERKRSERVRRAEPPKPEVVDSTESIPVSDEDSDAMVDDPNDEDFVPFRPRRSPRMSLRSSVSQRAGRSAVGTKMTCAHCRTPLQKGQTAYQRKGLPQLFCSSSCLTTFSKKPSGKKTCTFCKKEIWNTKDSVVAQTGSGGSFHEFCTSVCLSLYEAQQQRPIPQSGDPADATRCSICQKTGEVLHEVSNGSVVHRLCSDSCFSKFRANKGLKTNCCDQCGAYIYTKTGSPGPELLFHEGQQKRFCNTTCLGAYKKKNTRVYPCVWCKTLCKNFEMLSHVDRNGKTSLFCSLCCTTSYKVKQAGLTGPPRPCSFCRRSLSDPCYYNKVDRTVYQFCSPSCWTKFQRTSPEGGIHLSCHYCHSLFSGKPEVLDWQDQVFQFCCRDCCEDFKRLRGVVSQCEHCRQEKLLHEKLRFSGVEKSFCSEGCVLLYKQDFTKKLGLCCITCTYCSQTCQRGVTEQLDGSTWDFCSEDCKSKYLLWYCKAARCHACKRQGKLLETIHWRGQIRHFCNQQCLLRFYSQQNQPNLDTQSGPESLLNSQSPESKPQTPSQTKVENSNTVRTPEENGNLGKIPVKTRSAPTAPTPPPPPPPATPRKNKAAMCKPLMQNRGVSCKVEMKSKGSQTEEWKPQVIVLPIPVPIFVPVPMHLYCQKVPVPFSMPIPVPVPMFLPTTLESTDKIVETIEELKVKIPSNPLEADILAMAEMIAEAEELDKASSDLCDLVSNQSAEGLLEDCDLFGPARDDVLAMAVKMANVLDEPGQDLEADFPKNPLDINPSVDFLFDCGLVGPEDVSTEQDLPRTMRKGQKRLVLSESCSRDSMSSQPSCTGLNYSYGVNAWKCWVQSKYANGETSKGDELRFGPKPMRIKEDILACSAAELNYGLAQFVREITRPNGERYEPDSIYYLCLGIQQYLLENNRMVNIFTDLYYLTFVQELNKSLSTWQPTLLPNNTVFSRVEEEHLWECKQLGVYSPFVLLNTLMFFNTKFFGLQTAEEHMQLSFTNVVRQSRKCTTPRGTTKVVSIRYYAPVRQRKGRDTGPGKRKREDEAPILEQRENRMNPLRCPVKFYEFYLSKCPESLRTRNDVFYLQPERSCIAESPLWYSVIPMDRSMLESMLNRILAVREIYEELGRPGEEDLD
# UniProt Q96NC0: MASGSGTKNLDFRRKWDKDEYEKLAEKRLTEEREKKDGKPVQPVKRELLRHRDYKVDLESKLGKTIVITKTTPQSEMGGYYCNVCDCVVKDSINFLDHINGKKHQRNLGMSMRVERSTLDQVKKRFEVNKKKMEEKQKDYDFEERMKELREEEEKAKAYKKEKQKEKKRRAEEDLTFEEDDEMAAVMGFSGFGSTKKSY
# UniProt Q7Z7L7: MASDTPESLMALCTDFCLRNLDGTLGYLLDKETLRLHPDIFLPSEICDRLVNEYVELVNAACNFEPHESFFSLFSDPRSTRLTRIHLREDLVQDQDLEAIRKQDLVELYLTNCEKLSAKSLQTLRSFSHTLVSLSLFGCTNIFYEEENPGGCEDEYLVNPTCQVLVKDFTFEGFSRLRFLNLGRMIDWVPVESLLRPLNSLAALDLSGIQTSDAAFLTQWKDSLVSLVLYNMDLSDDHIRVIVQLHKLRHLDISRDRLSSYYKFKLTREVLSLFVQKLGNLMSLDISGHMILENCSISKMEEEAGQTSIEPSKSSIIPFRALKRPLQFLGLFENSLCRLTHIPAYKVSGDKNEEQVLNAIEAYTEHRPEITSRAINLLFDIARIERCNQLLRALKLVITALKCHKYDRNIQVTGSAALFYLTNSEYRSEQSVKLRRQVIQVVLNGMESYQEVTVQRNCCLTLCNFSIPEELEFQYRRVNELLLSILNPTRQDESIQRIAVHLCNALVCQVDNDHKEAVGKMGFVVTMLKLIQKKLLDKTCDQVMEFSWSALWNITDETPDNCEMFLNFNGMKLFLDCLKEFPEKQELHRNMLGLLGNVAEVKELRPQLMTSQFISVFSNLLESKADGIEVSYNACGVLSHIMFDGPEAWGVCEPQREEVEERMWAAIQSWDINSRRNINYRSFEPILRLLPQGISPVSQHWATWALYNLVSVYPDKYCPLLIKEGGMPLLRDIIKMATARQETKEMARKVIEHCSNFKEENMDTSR
# UniProt Q8IZN3: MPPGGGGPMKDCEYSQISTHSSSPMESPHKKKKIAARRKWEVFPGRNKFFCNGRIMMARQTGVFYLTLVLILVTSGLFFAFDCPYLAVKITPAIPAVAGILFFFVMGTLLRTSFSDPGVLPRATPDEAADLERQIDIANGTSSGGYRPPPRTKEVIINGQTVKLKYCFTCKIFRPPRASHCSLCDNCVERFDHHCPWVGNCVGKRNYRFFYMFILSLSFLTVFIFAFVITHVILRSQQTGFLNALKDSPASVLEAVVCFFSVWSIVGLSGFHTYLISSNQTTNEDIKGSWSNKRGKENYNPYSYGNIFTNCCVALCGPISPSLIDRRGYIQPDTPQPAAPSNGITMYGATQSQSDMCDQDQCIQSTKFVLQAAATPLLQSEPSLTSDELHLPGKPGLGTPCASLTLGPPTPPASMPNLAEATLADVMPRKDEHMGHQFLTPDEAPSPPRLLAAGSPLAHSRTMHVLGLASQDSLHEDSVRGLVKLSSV
# UniProt P27348: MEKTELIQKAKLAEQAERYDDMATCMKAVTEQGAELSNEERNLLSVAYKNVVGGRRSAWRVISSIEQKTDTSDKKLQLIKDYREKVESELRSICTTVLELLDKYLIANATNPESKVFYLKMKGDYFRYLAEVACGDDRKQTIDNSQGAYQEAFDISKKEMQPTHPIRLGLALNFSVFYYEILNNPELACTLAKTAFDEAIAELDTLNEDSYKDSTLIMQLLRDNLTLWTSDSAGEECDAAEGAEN
# UniProt Q86VM9: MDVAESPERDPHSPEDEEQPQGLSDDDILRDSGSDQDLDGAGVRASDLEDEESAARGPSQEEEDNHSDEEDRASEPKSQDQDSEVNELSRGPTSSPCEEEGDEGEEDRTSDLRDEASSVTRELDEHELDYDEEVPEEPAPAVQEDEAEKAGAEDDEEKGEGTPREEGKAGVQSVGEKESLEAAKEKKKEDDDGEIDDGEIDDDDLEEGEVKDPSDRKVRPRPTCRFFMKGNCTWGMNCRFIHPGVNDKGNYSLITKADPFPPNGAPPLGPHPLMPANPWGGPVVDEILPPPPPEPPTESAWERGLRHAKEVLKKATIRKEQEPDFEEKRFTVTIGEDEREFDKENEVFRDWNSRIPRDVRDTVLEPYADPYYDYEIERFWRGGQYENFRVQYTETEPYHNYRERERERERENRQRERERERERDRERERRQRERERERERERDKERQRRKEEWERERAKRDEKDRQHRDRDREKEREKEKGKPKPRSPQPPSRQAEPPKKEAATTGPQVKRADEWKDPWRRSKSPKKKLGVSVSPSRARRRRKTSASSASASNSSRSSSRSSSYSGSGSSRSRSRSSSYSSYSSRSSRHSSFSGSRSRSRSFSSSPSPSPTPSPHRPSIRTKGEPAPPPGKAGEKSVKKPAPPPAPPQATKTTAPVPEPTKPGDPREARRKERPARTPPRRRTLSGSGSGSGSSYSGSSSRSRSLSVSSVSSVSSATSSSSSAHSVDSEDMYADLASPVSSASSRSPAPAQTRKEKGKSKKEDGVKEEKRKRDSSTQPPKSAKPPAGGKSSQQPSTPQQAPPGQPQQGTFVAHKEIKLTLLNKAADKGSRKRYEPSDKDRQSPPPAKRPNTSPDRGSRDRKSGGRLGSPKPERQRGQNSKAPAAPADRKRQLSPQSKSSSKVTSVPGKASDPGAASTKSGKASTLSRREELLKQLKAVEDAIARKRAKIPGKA
# UniProt Q9HAV4: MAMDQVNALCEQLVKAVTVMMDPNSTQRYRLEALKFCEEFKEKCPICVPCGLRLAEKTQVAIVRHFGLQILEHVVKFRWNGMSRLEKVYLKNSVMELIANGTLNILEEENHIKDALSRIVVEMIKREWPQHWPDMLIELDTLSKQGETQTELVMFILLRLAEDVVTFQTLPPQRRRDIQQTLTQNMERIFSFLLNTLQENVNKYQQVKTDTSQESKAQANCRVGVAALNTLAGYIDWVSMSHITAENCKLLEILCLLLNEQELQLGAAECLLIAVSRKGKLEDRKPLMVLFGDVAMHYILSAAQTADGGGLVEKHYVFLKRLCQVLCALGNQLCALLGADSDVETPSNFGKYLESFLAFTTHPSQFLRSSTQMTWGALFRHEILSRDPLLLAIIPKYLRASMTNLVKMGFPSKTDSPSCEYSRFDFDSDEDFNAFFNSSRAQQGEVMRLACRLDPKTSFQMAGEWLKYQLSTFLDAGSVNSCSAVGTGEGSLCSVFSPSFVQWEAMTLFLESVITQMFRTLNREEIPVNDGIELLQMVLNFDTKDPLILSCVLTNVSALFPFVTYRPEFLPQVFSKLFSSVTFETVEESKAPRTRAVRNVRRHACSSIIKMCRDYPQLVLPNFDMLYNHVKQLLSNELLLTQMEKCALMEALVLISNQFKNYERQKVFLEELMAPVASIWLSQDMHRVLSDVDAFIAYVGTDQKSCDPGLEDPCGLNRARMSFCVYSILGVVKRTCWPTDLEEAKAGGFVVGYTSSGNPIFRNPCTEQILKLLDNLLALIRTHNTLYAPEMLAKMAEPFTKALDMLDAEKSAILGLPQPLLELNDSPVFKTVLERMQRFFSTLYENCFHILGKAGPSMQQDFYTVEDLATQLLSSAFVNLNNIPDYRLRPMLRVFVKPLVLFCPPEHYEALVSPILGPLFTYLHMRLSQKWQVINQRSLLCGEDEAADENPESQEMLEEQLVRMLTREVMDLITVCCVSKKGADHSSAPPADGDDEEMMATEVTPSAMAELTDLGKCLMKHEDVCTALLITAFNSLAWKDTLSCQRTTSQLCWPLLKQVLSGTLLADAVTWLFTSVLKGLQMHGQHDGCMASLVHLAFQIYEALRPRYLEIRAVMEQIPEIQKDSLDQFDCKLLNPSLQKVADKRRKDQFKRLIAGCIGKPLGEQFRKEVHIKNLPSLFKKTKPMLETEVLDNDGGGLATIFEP
# UniProt Q9NQW7: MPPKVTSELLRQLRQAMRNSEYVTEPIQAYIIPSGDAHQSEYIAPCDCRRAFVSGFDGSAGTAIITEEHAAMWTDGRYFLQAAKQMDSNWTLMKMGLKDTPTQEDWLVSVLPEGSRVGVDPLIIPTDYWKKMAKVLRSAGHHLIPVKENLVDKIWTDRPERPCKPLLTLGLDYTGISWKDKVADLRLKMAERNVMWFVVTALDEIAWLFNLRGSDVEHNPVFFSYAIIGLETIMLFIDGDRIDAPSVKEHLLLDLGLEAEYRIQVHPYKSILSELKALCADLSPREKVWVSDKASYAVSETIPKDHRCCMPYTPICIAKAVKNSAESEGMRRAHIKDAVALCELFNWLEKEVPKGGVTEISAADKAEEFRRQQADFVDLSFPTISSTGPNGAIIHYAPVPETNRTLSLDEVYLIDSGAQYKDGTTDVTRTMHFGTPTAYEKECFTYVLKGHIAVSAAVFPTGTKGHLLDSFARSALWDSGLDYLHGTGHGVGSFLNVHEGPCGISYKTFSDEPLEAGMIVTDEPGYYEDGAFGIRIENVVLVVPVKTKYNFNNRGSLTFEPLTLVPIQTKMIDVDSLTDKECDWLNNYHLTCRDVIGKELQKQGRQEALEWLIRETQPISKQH
# UniProt Q6FIF0: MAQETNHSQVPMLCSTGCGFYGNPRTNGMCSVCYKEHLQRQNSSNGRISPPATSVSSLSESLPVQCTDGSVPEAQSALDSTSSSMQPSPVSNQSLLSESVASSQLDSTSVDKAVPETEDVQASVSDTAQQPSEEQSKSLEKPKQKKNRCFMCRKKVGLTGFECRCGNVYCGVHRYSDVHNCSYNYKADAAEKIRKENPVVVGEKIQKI
# The other results are listed elsewhere or left out.
# Compound: CC[C@@H]1C(=O)N(C)c2cnc(Nc3ccc(C(=O)N[C@H]4CC[C@H](N5CCN(CC6CC6)CC5)CC4)cc3OC)nc2N1C(C)C [volasertib]
# Experiment: log2 fold change, soluble protein after heating vs DMSO (PISA); higher = thermal stabilisation; K562 cells, 10 uM, 30 min; active = over 0.2 and 3.5 SD of the protein, either way, in both replicates (recomputed)
# Procedure, shortened: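 K562 cells (2×10^6 cells/mL) were treated with 10 μM compound for 30 min, and aliquots were heated for 3 min over 48°C-58°C. Pooled aliquots were extracted in PBS with 0.5% NP-40 at 4°C, and the supernatant after 21,000xg for 90 min was measured by TMTpro 16plex LC-MS/MS with channel sums equalised. Reported thermal stability, relative to control samples and from duplicates, is a log2 fold change.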
row,Target,log2 fold change
1,YJU2 (UniProt Q9BW85),inactive: -0.081
2,ZFAND5 (UniProt O76080),inactive: 0.215
3,ZNF24 (UniProt P17028),inactive: 0.211
4,ZFPL1 (UniProt O95159),inactive: -0.088
5,ZMYM3 (UniProt Q14202),inactive: -0.077
6,XRCC5 (UniProt P13010),inactive: -0.482
7,ZMAT2 (UniProt Q96NC0),inactive: 0.036
8,YARS (UniProt P54577),inactive: -0.193
9,YIPF4 (UniProt Q9BSR8),inactive: 0.134
10,ZFP91 (UniProt Q96JP5),inactive: 0.016
11,XRCC6 (UniProt P12956),active: -0.515
12,YY1 (UniProt P25490),active: -0.44
13,ZFYVE9 (UniProt O95405),inactive: -0.496
14,XPNPEP3 (UniProt Q9NQH7),inactive: 0.075
15,ZFAND2B (UniProt Q8WV99),inactive: 0.067
16,ZDHHC17 (UniProt Q8IUH5),inactive: -0.095
17,YWHAB (UniProt P31946),inactive: 0.024
18,XPO1 (UniProt O14980),active: -0.546
19,ZNF143 (UniProt P52747),active: -0.289
20,YBX1 (UniProt P67809),inactive: 0.508

row,Target,log2 fold change
1,ZER1 (UniProt Q7Z7L7),inactive: 0.009
2,ZDHHC14 (UniProt Q8IZN3),inactive: 0.032
3,YWHAQ (UniProt P27348),inactive: -0.073
4,YAE1 (UniProt Q9NRH1),inactive: -0.101
5,ZC3HC1 (UniProt Q86WB0),active: -0.579
6,ZC3H18 (UniProt Q86VM9),inactive: -0.085
7,YOD1 (UniProt Q5VVQ6),inactive: -0.247
8,YIPF5 isoform 3 (UniProt Q969M3),inactive: 0.058
9,YIPF6 (UniProt Q96EC8),inactive: -0.037
10,XPO5 (UniProt Q9HAV4),active: -0.263
11,YWHAZ (UniProt P63104),inactive: -0.016
12,XPO6 (UniProt Q96QU8),active: -0.536
13,YLPM1 (UniProt P49750),active: -0.265
14,ZDHHC5 (UniProt Q9C0B5),inactive: 0.093
15,XPNPEP1 isoform 3 (UniProt Q9NQW7),inactive: 0.049
16,ZNF217 (UniProt O75362),inactive: -0.007
17,ZFAND6 (UniProt Q6FIF0),inactive: 0.09
18,ZC3H8 (UniProt Q8N5P1),inactive: 0.207
19,YBX3 isoform 2 (UniProt P16989),inactive: 0.252

# A section of the results above, for reference:
row,Target,log2 fold change
2,ZDHHC14 (UniProt Q8IZN3),inactive: 0.032
3,YWHAQ (UniProt P27348),inactive: -0.073
